Test results taken from publication PMC9820559, “Investigation of the Fuzzy Complex between RSV Nucleoprotein and Phosphoprotein to Optimize an Inhibition Assay by Fluorescence Polarization” (International Journal of Molecular Sciences, 2022).
No constants are given. Whether binding was seen depends on the method and setting. For part of these data: In cells and extracts the contact can be indirect. Some results given as binding are weak or reduced against the parent protein; the word gives no strength.

By UniProt entry, the sequences of proteins in these tests, tags left out. Residues count along the entry.
UniProt P03421, residues 161-241: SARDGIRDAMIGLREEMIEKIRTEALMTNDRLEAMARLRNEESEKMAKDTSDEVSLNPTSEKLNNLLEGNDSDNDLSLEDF
UniProt P03418: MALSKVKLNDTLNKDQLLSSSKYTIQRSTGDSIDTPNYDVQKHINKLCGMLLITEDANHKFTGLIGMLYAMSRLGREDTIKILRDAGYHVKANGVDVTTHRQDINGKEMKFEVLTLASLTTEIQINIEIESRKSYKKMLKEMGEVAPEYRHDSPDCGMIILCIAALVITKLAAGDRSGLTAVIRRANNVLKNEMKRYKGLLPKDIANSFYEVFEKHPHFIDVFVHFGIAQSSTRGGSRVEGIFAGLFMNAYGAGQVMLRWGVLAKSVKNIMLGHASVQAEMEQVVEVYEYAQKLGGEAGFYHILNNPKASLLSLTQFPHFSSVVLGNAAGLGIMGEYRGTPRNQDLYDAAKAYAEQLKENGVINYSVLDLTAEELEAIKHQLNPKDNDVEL

Tests used:
[1] = target: GST-fused C-terminal domain of RSV P protein, P(161–241) (human respiratory syncytial virus) (UniProt P03421); experiment: pull-down; preparative co-purification: N co-expressed with GST-P(161–241) in E. coli, clarified lysate on glutathione-Sepharose 4B beads, 4 °C, 3 h; 20 mM Tris-HCl pH 8.5, 150 mM NaCl washes
[2] = target: RSV N-RNA complex (full-length N protein in ring-shaped complexes with bacterial RNA) (human respiratory syncytial virus) (UniProt P03418); experiment: fluorescence polarisation; competition: unlabeled P peptide varied against 200 nM F11 on 10 µM N-RNA; Tris pH 8 without salt; Hill equation; Ki from the IC50-to-Ki server; both purified
[3] = target: RSV N-RNA complex (full-length N protein in ring-shaped complexes with bacterial RNA) (human respiratory syncytial virus) (UniProt P03418); experiment: fluorescence polarisation; competition: unlabeled P7E varied against 200 nM F7E on 10 µM N-RNA; Tris pH 8 without salt; Hill equation; Ki from the IC50-to-Ki server; both purified
[4] = target: RSV N-RNA complex (full-length N protein in ring-shaped complexes with bacterial RNA) (human respiratory syncytial virus) (UniProt P03418); experiment: fluorescence polarisation; competition: unlabeled P5E varied against 200 nM F5E on 10 µM N-RNA; Tris pH 8 without salt; Hill equation; Ki from the IC50-to-Ki server; both purified
[5] = target: RSV N-RNA complex (full-length N protein in ring-shaped complexes with bacterial RNA) (human respiratory syncytial virus) (UniProt P03418); experiment: fluorescence polarisation; competition: unlabeled pP11 varied against 200 nM BCN_(11EE) on 1 µM N-RNA; Tris pH 8 buffer; Hill equation; Ki from the IC50-to-Ki server; both purified
[6] = target: RSV N-RNA complex (full-length N protein in ring-shaped complexes with bacterial RNA) (human respiratory syncytial virus) (UniProt P03418); experiment: fluorescence polarisation; competition: unlabeled P_(10EE) varied against 200 nM BCN_(10EE) on 1 µM N-RNA; Tris pH 8 buffer; Hill equation; Ki from the IC50-to-Ki server; both purified

“RSV N-RNA complex (full-length N protein in ring-shaped complexes with bacterial RNA) (from UniProt P03418 1-391)” was tested, and the binding [1] was “binds”.

B1: F11 (fluorescein-5-thiourea-labelled RSV P11 peptide) (peptide)
peptide: DSDNDLSLEDF
modifications: fluorescein-5-thiourea (FTU) on the N-terminus
With B1 the binding [2] was “binds”.

B2: F7E (FTU-labelled RSV P 7-mer, Ser237Glu) (peptide)
peptide: DLELEDF
modifications: fluorescein-5-thiourea (FTU) on the N-terminus
B2 was tested, and the binding [3] was “binds”.

B3: F5E (FTU-labelled RSV P 5-mer, Ser237Glu) (peptide)
peptide: ELEDF
modifications: fluorescein-5-thiourea (FTU) on the N-terminus
For B3, the binding [4] was “binds”.

B4: BCN_(11EE) (dicyano BODIPY FL-labelled RSV P 11-mer, Ser232Glu/Ser237Glu) (peptide)
peptide: DEDNDLELEDF
modifications: dicyano BODIPY FL on the N-terminus
In the case of B4, the binding [5] is reported as “binds”.

B5: BCN_(10EE) (dicyano BODIPY FL-labelled RSV P 10-mer, Ser232Glu/Ser237Glu) (peptide)
peptide: EDNDLELEDF
modifications: dicyano BODIPY FL on the N-terminus
B5 was tested, and the binding [6] was “binds”.
